{"sequences": {"note": "By UniProt entry, the sequences of proteins in these tests, tags left out. Where a name states a change or a piece, a line headed by the entry shows the natural chain unless it says otherwise. Residues count along the entry.", "UniProt Q05397, whole entry, looked up": "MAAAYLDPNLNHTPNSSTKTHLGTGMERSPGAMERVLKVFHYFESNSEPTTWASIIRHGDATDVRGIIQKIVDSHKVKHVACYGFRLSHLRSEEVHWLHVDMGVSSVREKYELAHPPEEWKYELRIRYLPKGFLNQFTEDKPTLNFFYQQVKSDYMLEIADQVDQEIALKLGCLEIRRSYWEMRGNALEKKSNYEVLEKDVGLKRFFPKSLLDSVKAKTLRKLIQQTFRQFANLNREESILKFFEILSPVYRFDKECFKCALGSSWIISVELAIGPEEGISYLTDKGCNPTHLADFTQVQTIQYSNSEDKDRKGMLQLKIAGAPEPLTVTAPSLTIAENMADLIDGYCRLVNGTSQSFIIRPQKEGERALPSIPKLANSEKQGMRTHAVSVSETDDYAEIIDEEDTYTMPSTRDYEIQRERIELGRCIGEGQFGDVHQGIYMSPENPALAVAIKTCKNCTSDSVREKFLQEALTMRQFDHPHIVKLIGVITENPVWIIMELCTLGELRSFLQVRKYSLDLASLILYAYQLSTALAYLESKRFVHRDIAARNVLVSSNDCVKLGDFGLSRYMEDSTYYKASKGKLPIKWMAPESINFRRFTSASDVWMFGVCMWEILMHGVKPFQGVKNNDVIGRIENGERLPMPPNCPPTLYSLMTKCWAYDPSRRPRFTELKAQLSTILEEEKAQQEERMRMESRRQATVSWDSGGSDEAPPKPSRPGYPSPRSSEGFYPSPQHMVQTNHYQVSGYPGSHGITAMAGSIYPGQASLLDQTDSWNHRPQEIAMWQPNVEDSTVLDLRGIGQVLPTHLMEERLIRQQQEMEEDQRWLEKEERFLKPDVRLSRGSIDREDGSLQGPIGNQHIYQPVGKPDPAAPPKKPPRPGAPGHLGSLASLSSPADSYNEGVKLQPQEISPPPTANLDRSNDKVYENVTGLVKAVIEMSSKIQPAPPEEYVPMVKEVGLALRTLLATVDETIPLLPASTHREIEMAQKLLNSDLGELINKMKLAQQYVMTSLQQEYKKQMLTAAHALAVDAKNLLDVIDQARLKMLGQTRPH", "UniProt Q13200, 457-478": "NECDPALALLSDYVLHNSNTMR", "UniProt Q9Y520": "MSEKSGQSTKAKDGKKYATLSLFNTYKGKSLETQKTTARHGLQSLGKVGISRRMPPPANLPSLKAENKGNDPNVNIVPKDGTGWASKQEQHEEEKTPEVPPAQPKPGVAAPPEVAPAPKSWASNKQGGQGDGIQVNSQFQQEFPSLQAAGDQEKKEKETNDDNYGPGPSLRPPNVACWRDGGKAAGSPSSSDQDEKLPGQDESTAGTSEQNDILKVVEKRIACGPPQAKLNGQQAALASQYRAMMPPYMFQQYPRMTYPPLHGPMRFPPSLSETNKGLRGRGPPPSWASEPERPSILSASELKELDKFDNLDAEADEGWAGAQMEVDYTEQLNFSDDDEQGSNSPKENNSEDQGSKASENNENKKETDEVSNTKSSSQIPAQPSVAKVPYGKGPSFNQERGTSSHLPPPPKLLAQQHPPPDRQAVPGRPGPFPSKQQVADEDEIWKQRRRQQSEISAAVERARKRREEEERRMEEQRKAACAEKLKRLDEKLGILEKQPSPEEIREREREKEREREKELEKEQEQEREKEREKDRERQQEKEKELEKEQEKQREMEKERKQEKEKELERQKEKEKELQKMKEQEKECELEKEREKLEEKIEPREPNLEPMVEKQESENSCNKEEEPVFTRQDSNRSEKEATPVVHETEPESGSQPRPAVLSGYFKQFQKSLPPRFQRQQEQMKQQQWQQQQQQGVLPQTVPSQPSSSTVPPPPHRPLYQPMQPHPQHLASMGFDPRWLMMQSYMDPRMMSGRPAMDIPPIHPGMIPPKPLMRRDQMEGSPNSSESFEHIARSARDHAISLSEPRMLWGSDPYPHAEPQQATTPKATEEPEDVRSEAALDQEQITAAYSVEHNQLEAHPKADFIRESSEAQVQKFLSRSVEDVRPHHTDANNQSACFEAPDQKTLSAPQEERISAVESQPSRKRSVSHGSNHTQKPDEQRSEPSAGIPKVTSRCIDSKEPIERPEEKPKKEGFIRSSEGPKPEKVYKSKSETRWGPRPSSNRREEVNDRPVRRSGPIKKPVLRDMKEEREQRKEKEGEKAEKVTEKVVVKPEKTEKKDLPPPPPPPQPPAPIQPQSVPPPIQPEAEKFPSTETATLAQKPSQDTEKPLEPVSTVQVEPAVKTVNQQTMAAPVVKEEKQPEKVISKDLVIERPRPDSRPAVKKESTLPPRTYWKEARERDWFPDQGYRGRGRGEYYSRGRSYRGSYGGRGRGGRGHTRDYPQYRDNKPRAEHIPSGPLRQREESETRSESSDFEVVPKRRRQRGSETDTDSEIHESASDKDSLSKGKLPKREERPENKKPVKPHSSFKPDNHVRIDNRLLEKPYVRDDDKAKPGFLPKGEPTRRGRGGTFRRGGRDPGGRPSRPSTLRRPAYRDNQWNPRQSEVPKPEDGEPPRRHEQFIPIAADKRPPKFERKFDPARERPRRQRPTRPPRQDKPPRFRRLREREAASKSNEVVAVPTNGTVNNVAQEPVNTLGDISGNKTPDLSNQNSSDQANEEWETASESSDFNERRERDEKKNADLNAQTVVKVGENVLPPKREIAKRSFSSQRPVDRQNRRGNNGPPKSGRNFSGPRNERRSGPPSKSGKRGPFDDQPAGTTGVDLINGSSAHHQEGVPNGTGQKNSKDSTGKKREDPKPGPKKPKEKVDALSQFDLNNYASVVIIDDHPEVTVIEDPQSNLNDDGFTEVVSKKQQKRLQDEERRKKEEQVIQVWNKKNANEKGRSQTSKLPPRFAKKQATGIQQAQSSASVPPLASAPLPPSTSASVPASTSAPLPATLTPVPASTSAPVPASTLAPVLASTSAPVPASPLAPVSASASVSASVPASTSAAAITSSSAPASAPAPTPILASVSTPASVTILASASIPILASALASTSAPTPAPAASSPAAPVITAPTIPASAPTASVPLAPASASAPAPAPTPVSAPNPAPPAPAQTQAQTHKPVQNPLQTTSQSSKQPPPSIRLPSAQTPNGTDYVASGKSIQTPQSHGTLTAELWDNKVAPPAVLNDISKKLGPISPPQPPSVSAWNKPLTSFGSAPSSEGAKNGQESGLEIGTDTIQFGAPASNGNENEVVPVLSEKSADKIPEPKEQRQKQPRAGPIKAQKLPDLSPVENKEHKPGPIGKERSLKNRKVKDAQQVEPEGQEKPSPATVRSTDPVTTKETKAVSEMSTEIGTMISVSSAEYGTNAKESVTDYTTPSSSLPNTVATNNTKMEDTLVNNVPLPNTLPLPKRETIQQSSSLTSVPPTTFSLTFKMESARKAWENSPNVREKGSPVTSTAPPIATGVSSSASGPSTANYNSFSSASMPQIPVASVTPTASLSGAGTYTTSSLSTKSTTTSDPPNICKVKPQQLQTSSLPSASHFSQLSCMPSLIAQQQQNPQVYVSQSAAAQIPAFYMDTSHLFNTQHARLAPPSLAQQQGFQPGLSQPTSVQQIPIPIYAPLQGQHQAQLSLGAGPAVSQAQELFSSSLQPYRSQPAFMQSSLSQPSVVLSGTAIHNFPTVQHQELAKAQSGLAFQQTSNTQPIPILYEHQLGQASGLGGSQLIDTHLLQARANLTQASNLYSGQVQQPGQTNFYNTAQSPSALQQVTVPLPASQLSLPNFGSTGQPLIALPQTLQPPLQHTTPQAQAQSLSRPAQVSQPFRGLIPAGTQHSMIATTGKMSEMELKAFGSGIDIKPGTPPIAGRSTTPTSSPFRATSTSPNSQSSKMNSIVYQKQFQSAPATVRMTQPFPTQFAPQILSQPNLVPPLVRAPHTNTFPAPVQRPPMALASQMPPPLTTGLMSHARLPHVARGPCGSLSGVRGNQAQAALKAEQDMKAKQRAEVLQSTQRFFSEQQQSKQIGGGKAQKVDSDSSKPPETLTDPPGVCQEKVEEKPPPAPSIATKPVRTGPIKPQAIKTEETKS", "UniProt P25786": "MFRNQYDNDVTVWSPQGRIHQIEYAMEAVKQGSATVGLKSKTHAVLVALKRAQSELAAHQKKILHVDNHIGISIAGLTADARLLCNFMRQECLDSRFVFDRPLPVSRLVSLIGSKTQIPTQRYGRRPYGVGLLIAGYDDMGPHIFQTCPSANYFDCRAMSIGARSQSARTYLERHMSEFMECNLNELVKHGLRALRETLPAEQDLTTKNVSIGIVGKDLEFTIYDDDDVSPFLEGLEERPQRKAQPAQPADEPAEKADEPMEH", "UniProt Q9Y4B4": "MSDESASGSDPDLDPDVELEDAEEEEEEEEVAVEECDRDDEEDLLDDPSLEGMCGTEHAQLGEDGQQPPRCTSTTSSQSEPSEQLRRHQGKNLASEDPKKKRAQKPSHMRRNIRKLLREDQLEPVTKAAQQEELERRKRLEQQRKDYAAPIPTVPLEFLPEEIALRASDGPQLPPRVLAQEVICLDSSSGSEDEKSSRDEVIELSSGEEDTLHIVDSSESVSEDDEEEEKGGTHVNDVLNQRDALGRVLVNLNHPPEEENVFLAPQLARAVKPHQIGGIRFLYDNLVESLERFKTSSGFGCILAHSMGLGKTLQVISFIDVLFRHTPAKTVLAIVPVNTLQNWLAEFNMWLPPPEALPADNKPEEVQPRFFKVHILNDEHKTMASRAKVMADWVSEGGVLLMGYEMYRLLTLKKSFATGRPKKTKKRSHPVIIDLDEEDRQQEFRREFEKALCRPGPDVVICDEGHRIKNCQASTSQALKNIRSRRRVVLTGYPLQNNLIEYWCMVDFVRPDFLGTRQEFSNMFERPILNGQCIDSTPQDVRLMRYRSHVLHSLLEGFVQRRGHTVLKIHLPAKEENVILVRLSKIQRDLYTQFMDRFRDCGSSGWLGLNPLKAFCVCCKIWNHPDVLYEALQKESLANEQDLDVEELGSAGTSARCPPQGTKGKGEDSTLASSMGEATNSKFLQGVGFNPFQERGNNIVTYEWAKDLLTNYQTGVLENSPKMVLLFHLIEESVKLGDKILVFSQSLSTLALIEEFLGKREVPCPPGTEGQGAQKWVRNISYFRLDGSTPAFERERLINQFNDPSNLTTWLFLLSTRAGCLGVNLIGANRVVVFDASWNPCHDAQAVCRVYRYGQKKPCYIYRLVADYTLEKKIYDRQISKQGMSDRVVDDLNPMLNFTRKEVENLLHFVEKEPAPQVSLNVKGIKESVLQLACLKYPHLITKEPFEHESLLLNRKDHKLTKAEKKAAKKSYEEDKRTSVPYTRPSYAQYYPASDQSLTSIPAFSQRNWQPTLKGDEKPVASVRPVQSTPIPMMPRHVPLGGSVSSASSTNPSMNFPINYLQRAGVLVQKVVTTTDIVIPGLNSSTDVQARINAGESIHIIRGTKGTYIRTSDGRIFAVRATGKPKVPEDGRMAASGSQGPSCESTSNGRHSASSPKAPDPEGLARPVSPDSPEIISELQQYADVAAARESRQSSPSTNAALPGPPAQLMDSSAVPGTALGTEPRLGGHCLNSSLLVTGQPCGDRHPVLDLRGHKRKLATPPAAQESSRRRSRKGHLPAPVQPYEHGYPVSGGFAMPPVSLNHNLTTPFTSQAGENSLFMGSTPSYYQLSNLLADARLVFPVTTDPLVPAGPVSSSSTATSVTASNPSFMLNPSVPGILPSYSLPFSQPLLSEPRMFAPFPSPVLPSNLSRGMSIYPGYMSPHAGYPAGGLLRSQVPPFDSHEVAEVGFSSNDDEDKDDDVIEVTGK", "UniProt Q86Y79": "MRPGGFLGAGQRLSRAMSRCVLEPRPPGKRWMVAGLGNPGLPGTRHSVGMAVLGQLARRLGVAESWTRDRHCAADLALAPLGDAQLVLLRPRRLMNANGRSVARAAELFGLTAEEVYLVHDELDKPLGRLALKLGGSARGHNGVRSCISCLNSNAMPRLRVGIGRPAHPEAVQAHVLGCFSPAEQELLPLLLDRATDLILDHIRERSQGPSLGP", "UniProt Q9Y3T6": "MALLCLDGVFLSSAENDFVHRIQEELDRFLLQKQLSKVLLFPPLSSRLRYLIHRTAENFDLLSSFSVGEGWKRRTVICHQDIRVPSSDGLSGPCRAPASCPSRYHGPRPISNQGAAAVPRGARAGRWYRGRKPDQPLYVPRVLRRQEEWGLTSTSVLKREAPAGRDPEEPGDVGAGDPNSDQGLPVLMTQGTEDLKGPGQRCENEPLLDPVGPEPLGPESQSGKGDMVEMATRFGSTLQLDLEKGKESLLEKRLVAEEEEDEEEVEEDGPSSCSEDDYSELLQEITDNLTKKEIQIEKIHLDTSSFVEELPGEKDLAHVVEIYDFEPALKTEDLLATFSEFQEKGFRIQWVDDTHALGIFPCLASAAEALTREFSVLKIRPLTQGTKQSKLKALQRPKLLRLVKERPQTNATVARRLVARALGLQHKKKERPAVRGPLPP", "UniProt P60900": "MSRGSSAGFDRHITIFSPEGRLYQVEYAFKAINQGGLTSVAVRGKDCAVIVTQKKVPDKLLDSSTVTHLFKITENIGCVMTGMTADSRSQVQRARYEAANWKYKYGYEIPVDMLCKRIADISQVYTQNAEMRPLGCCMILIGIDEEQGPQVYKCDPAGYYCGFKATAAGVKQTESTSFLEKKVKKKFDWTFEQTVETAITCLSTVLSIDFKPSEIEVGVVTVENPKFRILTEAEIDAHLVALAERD"}, "source": "the supplement of paper PMC11732987", "about": "“Enantioselective OTUD7B fragment discovery through chemoproteomics screening and high-throughput optimisation” (Communications Chemistry, 2025)", "note": "The other results are listed elsewhere or left out. The data scatter; read single values as rough.", "data": [{"compound": "ClCC(=O)N[C@@H]1CCCc2ccccc12", "assay": "log2 mean competition ratio of IA-DTB cysteine labelling (DMSO/compound) (log2 ratio); higher = stronger cysteine engagement by compound", "conditions": "50 µM; treatment time: 4 h; cell line lysate: HEK293T", "description": "(§1)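 IA-DTB competitive cysteine chemoproteomics in HEK293T RIPA lysate. Lysates were treated with compound 29 or 30 at 50 or 200 µM for 4 h, then IA-DTB (500 µM, 1 h), trypsin-digested, NeutrAvidin-enriched and analysed by diaPASEF. Competition ratio = intensity DMSO / intensity compound (n=4 treated, n=64 DMSO); binding: mean log2 CR ≥ 1 and p ≤ 0.05 plus QC filters. Target is the cysteine site.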", "values": [{"target": "RADIL C73", "log2 mean competition ratio": 0.0505}, {"target": "PTK2 C559 (UniProt Q05397)", "log2 mean competition ratio": -0.0753}, {"target": "PSMD2 C459 (UniProt Q13200)", "log2 mean competition ratio": -0.0176}, {"target": "RAD50 C102", "log2 mean competition ratio": 0.0267}, {"target": "PSMD4 C58", "log2 mean competition ratio": -0.102}, {"target": "PTPN11 C104", "log2 mean competition ratio": -0.0722}, {"target": "PRRC2C C620 (UniProt Q9Y520)", "log2 mean competition ratio": -0.152}, {"target": "PSMA1 C92 (UniProt P25786)", "log2 mean competition ratio": -0.24}, {"target": "RAD54L2 C71 (UniProt Q9Y4B4)", "log2 mean competition ratio": -0.00486}, {"target": "R3HDM1 C304 (UniProt Q15032+R3HDM1)", "log2 mean competition ratio": 0.237}, {"target": "PTRH1 C20 (UniProt Q86Y79)", "log2 mean competition ratio": -0.155}, {"target": "PYCR1 C262", "log2 mean competition ratio": 0.281}, {"target": "R3HCC1L C469", "log2 mean competition ratio": 0.316}, {"target": "R3HCC1 C100 (UniProt Q9Y3T6+R3HCC1)", "log2 mean competition ratio": 0.0264}, {"target": "RAD21 C78 (UniProt O60216)", "log2 mean competition ratio": 0.705}, {"target": "PSMA6 C78 (UniProt P60900)", "log2 mean competition ratio": -0.233}, {"target": "RAD54L2 C184 (UniProt Q9Y4B4)", "log2 mean competition ratio": 0.098}, {"target": "PXN C546 (UniProt P49023)", "log2 mean competition ratio": -0.0415}, {"target": "PWP2 C24 (UniProt Q15269)", "log2 mean competition ratio": -0.14}, {"target": "PTPN11 C259", "log2 mean competition ratio": -0.593}]}, {"compound": "ClCC(=O)N[C@@H]1CCCc2ccccc12", "assay": "log2 mean competition ratio of IA-DTB cysteine labelling (DMSO/compound) (log2 ratio); higher = stronger cysteine engagement by compound", "conditions": "200 µM; treatment time: 4 h; cell line lysate: HEK293T", "description": "as §1", "values": [{"target": "RADIL C73", "log2 mean competition ratio": 0.184}, {"target": "PTK2 C559 (UniProt Q05397)", "log2 mean competition ratio": 0.0293}, {"target": "PSMD2 C459 (UniProt Q13200)", "log2 mean competition ratio": -0.022}, {"target": "RAD50 C102", "log2 mean competition ratio": -0.0384}, {"target": "PSMD4 C58", "log2 mean competition ratio": -0.391}, {"target": "PTPN11 C104", "log2 mean competition ratio": -0.54}, {"target": "PRRC2C C620 (UniProt Q9Y520)", "log2 mean competition ratio": -0.475}, {"target": "PSMA1 C92 (UniProt P25786)", "log2 mean competition ratio": 0.335}, {"target": "RAD54L2 C71 (UniProt Q9Y4B4)", "log2 mean competition ratio": -0.517}, {"target": "R3HDM1 C304 (UniProt Q15032+R3HDM1)", "log2 mean competition ratio": -0.0942}, {"target": "PTRH1 C20 (UniProt Q86Y79)", "log2 mean competition ratio": -0.107}, {"target": "PYCR1 C262", "log2 mean competition ratio": 0.102}, {"target": "R3HCC1L C469", "log2 mean competition ratio": 0.282}, {"target": "R3HCC1 C100 (UniProt Q9Y3T6+R3HCC1)", "log2 mean competition ratio": -0.0391}, {"target": "RAD21 C78 (UniProt O60216)", "log2 mean competition ratio": -0.013}, {"target": "PSMA6 C78 (UniProt P60900)", "log2 mean competition ratio": -0.0557}, {"target": "RAD54L2 C184 (UniProt Q9Y4B4)", "log2 mean competition ratio": -0.648}, {"target": "PXN C546 (UniProt P49023)", "log2 mean competition ratio": -0.116}, {"target": "PWP2 C24 (UniProt Q15269)", "log2 mean competition ratio": 0.0541}, {"target": "PTPN11 C259", "log2 mean competition ratio": 0.601}]}]}
